# At least one compound was matched to its structure with a doubt left.
# System: patients with moderate-to-severe COPD
# Experiment: Phase IIa randomised, double-blind, double-dummy, crossover trial; sleep difficulties score on patient diary card (Example 3)
# Type: in vivo, human
# Settings: 15 days; aclidinium 400 μg BID (p<0.05), tiotropium 18 μg QD (p>0.05)
# Protocol: In a Phase IIa randomised, double-blind, double-dummy, crossover trial, patients with moderate-to-severe COPD received inhaled aclidinium 400 μg BID, tiotropium 18 μg QD and placebo for 15 days, with a 9-15 day washout between treatment periods.
# The incidence of sleep difficulties was recorded daily on a patient diary card. As in Example 1, the scores ranged from 0 for none to 1-4 for increasing severity of the sleep difficulties. The change in the score produced by each treatment with respect to the baseline was then measured.
structure (smiles),measurement,value
"O=C(O[C@H]1C[N+]2(CCCOc3ccccc3)CCC1CC2)C(O)(c1cccs1)c1cccs1 [aclidinium, 3(R)-(2-hydroxy-2,2-dithien-2-ylacetoxy)-1-(3-phenoxypropyl)-1-azoniabicyclo[2.2.2]octane]",statistical difference of the sleep difficulties score with placebo,statistically significant difference with placebo

# From patent publication US9737520B2, “Aclidinium for use in improving the quality of sleep in respiratory patients” (Almirall, S.A., priority 2011, dated 2017)
